Experimental data taken from article PMC12548414.
The whole screen tested about 1,600 compounds, of which about 20 (1%) showed an effect of 50% or more. Some of the results follow.

test system: T1, E. coli pLC1021 (luc-trpAt trans-translation reporter); set-up: species or system Escherichia coli pLC1021; luc-trpAt non-stop luciferase reporter; luminescence rises when trans-translation is inhibited; normalized to KKL-35 and DMSO; conditions: reporter signal, KKL-35 = 100%; rise means trans-translation inhibition; 2 h, 20 µM
T1 construct: pLC1021 luc-trpAt reporter strain
Method in brief: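 Luminescence (560 nm, 10 min after Bright-Glo) reports luciferase that escapes trans-translation tagging, measured after 2 h room-temperature treatment with 20 µM compound. Each plate was scaled between DMSO (negative) and 20 µM KKL-35 (positive) controls. Compounds scoring one standard deviation above the median counted as positive; at least two biological repeats.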

| SMILES | % activation |
| --- | --- |
| CCC(=O)Oc1cccc2ccc(/C=C/c3ccccc3F)nc12 [KKL-1463] | 14% |
| O=C1c2cccc3cccc(c23)C(=O)N1CCN1CCN(CC(O)COc2ccccc2Cl)CC1 (centres unmarked) [KKL-0725] | 6% |
| O=C(Oc1ccc(Cl)cc1)c1ccc(COC(=O)c2cnccn2)cc1 [KKL-1070] | 3% |
| COc1cccc(-c2nn(-c3ccccc3)cc2CNCc2ccc(-n3cncn3)cc2)c1 [KKL-0653] | 2% |
| CCOC(=O)CSCC(=O)Nc1c(C(=O)C2CC2)oc2ccccc12 [KKL-1061] | 5% |
| COc1ccc2[nH]c(CN3CCC4(CC3)NC(=O)c3ccccc3O4)c(C)c2c1 [KKL-0473] | 9% |
| COc1ccc2cc(C(=O)C3CCCN(Cc4ccc(C#CC(C)(C)O)cc4)C3)ccc2c1 (centres unmarked) [KKL-1121] | 10% |
| COc1ccc(C(=O)NC(=S)Nc2ccc(N3CCCCC3)cc2)cc1OC [KKL-1472] | 0% |
| CC1Cc2cc(CNCc3cn(C)c4cc(F)ccc34)ccc2O1 (centres unmarked) [KKL-1034] | 0% |
| c1ccc(-c2nc(NC3CCCCC3)cc(C3CC3)n2)nc1 [KKL-1677] | 11% |
| O=C(COc1cccc(F)c1)Nc1nc(-c2ccccn2)cs1 [KKL-1787] | 5% |
| CCC(C)NC(=O)c1ccc(NC(=O)C2(c3ccccc3)CCCC2)cc1 (centres unmarked) [KKL-0427] | 0% |
| COc1ccc(F)c(-c2nc(CN3CCC4(C=Cc5ccccc54)CC3)c(C)o2)c1 [KKL-0476] | 6% |
| CSc1nccc(N2CCCC(CCC(=O)NCc3ccc(F)c(F)c3)C2)n1 (centres unmarked) [KKL-0346] | 0% |
| Cc1ccc2c(c1)cc(C(=O)N1CCCC(c3cc4[nH]cccc-4n3)C1)n2C (centres unmarked) [KKL-0533] | 0% |
| COC(=O)[C@@H]1Cc2c([nH]c3ccccc23)[C@H]2C[C@H](NCCNC(C)=O)C[C@@H](c3ccc(C(C)C)cc3)N21 [KKL-1606] | 0% |
| Cc1nc2ccccc2n1N=Cc1ccc([N+](=O)[O-])s1 [KKL-1026] | 0% |
| CCOC(=O)COc1ccc(S(=O)(=O)Nc2ccc(C)c(C)c2)cc1 [KKL-1407] | 0% |
| CN1Cc2c(N3CCOCC3)nc3sc(C(=O)c4ccc(Br)cc4)c(N)c3c2CC1(C)C [KKL-0984] | 0% |
| CSc1ccc(C(CC(=O)c2ccccc2)Nc2ccc(F)cc2)cc1 (centres unmarked) [KKL-1455] | 3% |
| Cc1cc(NC(=O)c2ccc([N+](=O)[O-])o2)c(C)cc1I [KKL-1342] | 0% |
| Cc1ccc(-n2cc(CNCCCn3ccnc3)c(-c3cccc(C)c3)n2)cc1 [KKL-0662] | 0% |
| COc1cc([N+](=O)[O-])ccc1N=C(S)Nc1ccc(F)c(Cl)c1 [KKL-1536] | 0% |
| Cc1ccc2[nH]c(/C(C#N)=C\c3c[nH]c4ccc(Br)cc34)nc2c1 [KKL-0579] | 0% |
| COc1ccc(CCNc2cc(C)nc3c(-c4ccccc4)c(C)nn23)cc1OC [KKL-0871] | 0% |
| Cc1nc2ccccn2c1C(=O)NCc1cccs1 [KKL-1801] | 0% |
| COc1cccc(N2CCN(CC(=O)Nc3cc(Cl)ccc3Cl)CC2)c1 [KKL-1245] | 0% |

| SMILES | % activation |
| --- | --- |
| Cc1ccc(/C=C/C(=O)C2C(=O)c3ccccc3C2=O)cc1 [KKL-0982] | 0% |
| Cc1nn2c(O)cc(C(C)(C)C)nc2c1-c1ccccc1 [KKL-0891] | 17% |
| CCOc1ccc2c(c1)cc(C(=O)N1CCCC(c3cc4[nH]cccc-4n3)C1)n2C (centres unmarked) [KKL-1219] | 0% |
| CC1CCc2sc3ncnc(NCCc4ccccc4)c3c2C1 (centres unmarked) [KKL-0868] | 2% |
| O=C(NCCc1ccc(F)cc1)NC12CC3CC(CC(C3)C1)C2 [KKL-1075] | 0% |
| CC(NC(=O)C1(c2ccc(Cl)cc2)CCC1)c1n[nH]c(-c2cccnc2)n1 (centres unmarked) [KKL-1243] | 8% |
| COC(=O)COc1ccc(-c2ccccc2)cc1 [KKL-1283] | 4% |
| CCOC(=O)COc1ccc(C(=O)Nc2ccc(F)cc2)cc1 [KKL-0783] | 0% |
| Brc1c(-c2ccc3c(c2)OCO3)nc2ncccn12 [KKL-1672] | 2% |
| CC(C)(C)c1ccc(-c2nnc(SCC(=O)OC3CCCCC3)o2)cc1 [KKL-1671] | 0% |
| CN(Cc1ccc(Cl)cc1)C(=O)CCc1nc2ccccc2oc1=O [KKL-1749] | 0% |
| CC12CCC(C(=O)Nc3ccc(OC(F)(F)F)cc3)(CC1=O)C2(C)C (centres unmarked) [KKL-0569] | 11% |
| CC(=NNC1=NC(=O)C(Cc2ccc(Cl)cc2)S1)c1ccc(F)cc1 (centres unmarked) [KKL-1358] | 16% |
| CCOC(=O)COc1ccc2c(=O)c(-c3ccc(OC)c(OC)c3)c(C(=O)OCC)oc2c1 [KKL-0958] | 16% |
| COc1ccccc1CC(C)NC(=O)c1cnc(SC)nc1 (centres unmarked) [KKL-0703] | 0% |
| COc1ccc(CNCc2cn(-c3cccc(F)c3)nc2-c2ccc(C)o2)cc1 [KKL-0321] | 0% |
| CSc1nc(-c2ccccc2)nc(C(Cl)Cl)n1 [KKL-1660] | 4% |
| COc1ccc2sc(Nc3nc(-c4ccccn4)cs3)nc2c1 [KKL-1681] | 0% |
| Cc1cc2cc(CN(Cc3cccnc3)C(=O)Nc3ccc(F)cc3)c(O)nc2cc1C [KKL-1347] | 0% |
| COC(=O)[C@@H]1Cc2c([nH]c3ccccc23)[C@H]2C[C@@H](NCCN(C)C)C[C@@H](c3ccc(C(C)C)cc3)N21 [KKL-0551] | 0% |
| CSc1ncc(C(=O)Nc2nc(-c3c[nH]c4cc(C)ccc34)cs2)cn1 [KKL-0474] | 0% |
| CCCCOC(=O)CSc1nc(N)c(C#N)c(-c2ccc(OC)cc2)c1C#N [KKL-0380] | 3% |
| COc1ccc(NC(=O)Cn2nnc(-c3ccc(OCC(C)C)cc3)n2)c(OC)c1 [KKL-1208] | 5% |
| O=C(Oc1cccc2cccnc12)C(Cc1ccccc1)N1C(=O)C2C3CCC(C3)C2C1=O (centres unmarked) [KKL-1364] | 9% |
| Cc1c(CN2CCC3(CC2)NC(=O)c2ccccc2O3)[nH]c2ccc(F)cc12 [KKL-0440] | 0% |
| COc1cccc(-c2ccccc2NC(=O)C2CCN(Cc3ccc4ccccc4c3)CC2)c1 [KKL-1168] | 0% |

Look-ups from the list:
CC(=NNC1=NC(=O)C(Cc2ccc(Cl)cc2)S1)c1ccc(F)cc1 (centres unmarked) [KKL-1358] – % activation: 16%
CSc1nccc(N2CCCC(CCC(=O)NCc3ccc(F)c(F)c3)C2)n1 (centres unmarked) [KKL-0346] – % activation: 0%
